{"source": "patent US20100029734A1", "about": "“METHODS FOR BREAST CANCER SCREENING AND TREATMENT” (Ore Pharmaceuticals Inc., priority 2008, published 2010)", "system": "T47D (ER+ cell line)", "test": "RT-CES cell proliferation assay, T47D", "assay_type": "cell-based, human", "settings": "formestane 10 μM + Ang II 500 nM", "protocol": "Unless otherwise indicated, cell proliferation assays described in Examples 2-5 were performed using a Real-Time Cell Electronic Sensing (RT-CES™ 96X) instrument from ACEA Bioscience (San Diego, Calif.). This instrument utilizes an electronic readout (impedance) to non-invasively quantify adherent cell proliferation and viability in real time.\nCells were seeded in 96-well microtiter plates containing microelectronic sensor arrays (96E plates; ACEA). Cells were maintained in RPMI 1640 (Invitrogen, Carlsbad, Calif.) supplemented with 10% fetal bovine serum (FBS) (Hyclone, Logan, Utah) and were cultured at 37° C. in a humidified atmosphere containing 5% CO2. For proliferation assays, cells were seeded (20,000 cells/well), allowed to attach and grown overnight in standard growth medium. Cells were then serum-starved for 8 hours prior to the proliferation assay in presence or absence of test compound(s). The proliferation response was continuously monitored by measuring the impedance change in each well for the indicated number of hours. Data are expressed as cell index (CI) change relative to time in culture, reflecting measured changes in electrical impedance. Each value shown is an average of 6 wells. […]", "note": "For at least one compound, name, drawing or mass did not settle the structure.", "data": [{"smiles": "C[C@]12CCC(=O)C(O)=C1CC[C@@H]1[C@@H]2CC[C@]2(C)C(=O)CC[C@@H]12", "note": "[formestane]", "values": [{"measurement": "effect on Ang II-induced cell proliferation", "value": "reversed the Ang II effect"}]}]}
